Values from PubChem BioAssay AID1259254 (NCATS, 2017)

Screen: 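Genome-wide screen for genes that prevent DNA re-replication in cancer cells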 (primary screen)
System: human HCT116 colorectal cancer cells
Reagents: single siRNA against human genes
Timing: 3 days
Read-out: 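Imaged Hoechst DNA stain sorts each cell into a cycle phase by DNA amount; per plate, G2 fraction set to 0% for non-targeting and 100% for GMNN siRNA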
Scale: G2 robust z-score and G2 cells, % of GMNN control: higher = more G2 cells, more excess DNA replication; raw share of cells in G2: higher = larger share of cells with G2 DNA content
Hit rule: 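Active siRNAs have a G2 robust z of 5 or more median absolute deviations over the median, which in these data means about 38% or higher of GMNN control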
Shown is an unselected part of about 59,000 reagents. Of all reagents, about 1,550 (2.6%) got an active call. 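G2 share is only a proxy for re-replication; each gene was hit by three separate siRNAs, and active genes were retested.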 Raw values vary from plate to plate and are shown uncorrected. A number with no mark means an inactive call. Reagents against one gene are numbered here. Not stated in the record: the amount of reagent.

no.	gene symbol	siRNA no.	G2 robust z-score	G2 cells, % of GMNN control	raw share of cells in G2 (%)
1	SURF2 (GeneID 6835)	1	1.35	12.5	10.7
2	SURF2 (GeneID 6835)	2	-0.294	0.899	4.25
3	SURF2 (GeneID 6835)	3	-0.397	0.175	3.41
4	IBSP (GeneID 3381)	1	0.859	9.01	9.12
5	IBSP (GeneID 3381)	2	-0.569	-1.03	3.82
6	IBSP (GeneID 3381)	3	2.32	19.3	12.1
7	SINHCAF (GeneID 58516)	1	0.345	5.39	6.47
8	SINHCAF (GeneID 58516)	2	-0.297	0.876	4.88
9	SINHCAF (GeneID 58516)	3	0.394	5.74	4.85
10	SFRP2 (GeneID 6423)	1	-0.964	-3.81	3.35
11	SFRP2 (GeneID 6423)	2	0.471	6.28	6.7
12	SFRP2 (GeneID 6423)	3	-0.443	-0.149	3.3
13	CCDC148 (GeneID 130940)	1	1.21	11.5	8.51
14	CCDC148 (GeneID 130940)	2	2.34	19.4	9.26
15	CCDC148 (GeneID 130940)	3	-0.59	-1.18	2.15
16	RPL23AP43 (GeneID 389101)	1	-0.667	-1.73	2.65
17	RPL23AP43 (GeneID 389101)	2	-0.832	-2.89	3.4
18	RPL23AP43 (GeneID 389101)	3	-0.476	-0.382	3.64
19	DEF8 (GeneID 54849)	1	0.112	3.76	4.43
20	DEF8 (GeneID 54849)	2	4.07	31.6	14.9
21	DEF8 (GeneID 54849)	3	-0.241	1.27	4.81
22	GLYATL2 (GeneID 219970)	1	-1.23	-5.67	3.25
23	GLYATL2 (GeneID 219970)	2	0.749	8.24	7.72
24	GLYATL2 (GeneID 219970)	3	1.04	10.3	9.04
25	RPL35P10 (GeneID 390876)	1	0.0607	3.39	4.86
26	RPL35P10 (GeneID 390876)	2	-0.0201	2.83	5.96
27	RPL35P10 (GeneID 390876)	3	0.45	6.13	6.04
28	SELENOW (GeneID 6415)	1	0.834	8.84	8.73
29	SELENOW (GeneID 6415)	2	-0.803	-2.68	3.16
30	SELENOW (GeneID 6415)	3	1.47	13.3	8.15
